US20030027218A1 (priority 1997, published 2003)
Positions of bridges follow the written chain, without caps; N, C: chain ends. *: point of attachment. Biotin = O=C1N[C@H]2[C@H](CS[C@H]2CCCCC(=O)*)N1

Experiments:
[1] = general procedure: Fmoc solid-phase peptide synthesis; Wang resin; PyBOP/HOBt/NMM; conditions: whole synthesis, acetate for Compounds 10 and 12 after anion exchange
[2] = general procedure: Fmoc solid-phase peptide synthesis; Cl-Trt resin; PyBOP/HOBt/NMM; conditions: whole synthesis, scale 140 umol, acetate for Compounds 10 and 12 after anion exchange

For H-LSTSKTIDMELV-OH, which crude mass ([1]; scale 25.0 umol) is on record?
The crude mass was 49.0 mg.

What about the isolated mass ([1]; scale 25.0 umol) of the same substance?
Its isolated mass is 20.2 mg.

Which results are given for H-PVLLSRAELRLLRRLKLKVEQHVC-OH?
crude mass ([1]; scale 100 umol): 320 mg; isolated mass ([1]; scale 100 umol): 26.4 mg

With H-LSTSKTIDMELVKRKRIEAIRG-OH as the substance, how does the crude mass ([1]; scale 33 umol) read?
Its crude mass is 115.3 mg.

And the isolated mass ([1]; scale 33 umol)?
The isolated mass was 63.3 mg.

With H-LSTSKTIDMELVKR-OH as the substance, how does the crude mass ([1]; scale 25.0 umol) read?
The crude mass was 18.3 mg.

What about the isolated mass ([1]; scale 25.0 umol) of the same substance?
The isolated mass was 4.7 mg.

What does the source list for H-LSTSKTIDMELVKRKRIEAIRGC-OH?
crude mass ([1]; scale 33 umol): 103.2 mg; isolated mass ([1]; scale 33 umol): 25.4 mg

With “H-CVLLSRAELRLLRRLKLKC-OH (disulfide 1-19)” as the substance, how does the isolated mass [2] read?
Its isolated mass is 12.2 mg.

Which isolated mass ([1]; scale 25.0 umol) does the source give for H-LSTSKTIDMELVKRKRI-OH here?
The isolated mass was 26.7 mg.

Which results are given for H-TIDMELVKRKRIEAIRG-OH?
crude mass ([1]; scale 25 umol): 58.3 mg; isolated mass ([1]; scale 25 umol): 22.6 mg

Which crude mass ([1]; scale 23 umol) does the source give for H-LSTCKTIDMELVKRKR-OH here?
Its crude mass is 59.8 mg.

What about the isolated mass ([1]; scale 23 umol) of the same substance?
Its isolated mass is 7.7 mg.

With Biotin-GRRLKLKVEQHVELYQKYSNNSWR-OH as the substance, how does the crude mass ([1]; scale 13.8 umol) read?
The crude mass was 44.2 mg.

What about the isolated mass ([1]; scale 13.8 umol) of the same substance?
Its isolated mass is 10.3 mg.

For H-LVKRKRIEAIRG-OH, which crude mass ([1]; scale 25.0 umol) is on record?
The crude mass was 48.7 mg.

What about the isolated mass ([1]; scale 25.0 umol) of the same substance?
The isolated mass was 35.5 mg.

For H-LKLKVEQHVELYQKYSNNSWR-OH, which crude mass ([1]; scale 23 umol) is on record?
The crude mass was 20.9 mg.

What about the isolated mass ([1]; scale 23 umol) of the same substance?
The isolated mass was 7.8 mg.

Which crude mass ([1]; scale 62.5 umol) does the source give for H-LQSSRHRRALDTNYSFSSTEKNC-OH here?
Its crude mass is 145 mg.

What about the isolated mass ([1]; scale 62.5 umol) of the same substance?
The isolated mass was 25.5 mg.
